No constants are given. Whether binding was seen depends on the method and setting. Binding seen in cells or lysates may run through a third protein. Some binding calls cover weakened binding; strength is not graded here.
Target: Flag-tagged RNF5 (RING finger protein 5), wild type, expressed in HepG2 cells (UniProt Q99942)
Assay: co-IP

By UniProt entry, the sequences of proteins in these tests, tags left out.
UniProt Q99942: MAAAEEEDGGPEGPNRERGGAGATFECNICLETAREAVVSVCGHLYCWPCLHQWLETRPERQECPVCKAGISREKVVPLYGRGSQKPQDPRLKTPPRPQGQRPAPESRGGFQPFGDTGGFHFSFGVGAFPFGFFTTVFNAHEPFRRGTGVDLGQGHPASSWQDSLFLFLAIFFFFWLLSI
UniProt Q13200: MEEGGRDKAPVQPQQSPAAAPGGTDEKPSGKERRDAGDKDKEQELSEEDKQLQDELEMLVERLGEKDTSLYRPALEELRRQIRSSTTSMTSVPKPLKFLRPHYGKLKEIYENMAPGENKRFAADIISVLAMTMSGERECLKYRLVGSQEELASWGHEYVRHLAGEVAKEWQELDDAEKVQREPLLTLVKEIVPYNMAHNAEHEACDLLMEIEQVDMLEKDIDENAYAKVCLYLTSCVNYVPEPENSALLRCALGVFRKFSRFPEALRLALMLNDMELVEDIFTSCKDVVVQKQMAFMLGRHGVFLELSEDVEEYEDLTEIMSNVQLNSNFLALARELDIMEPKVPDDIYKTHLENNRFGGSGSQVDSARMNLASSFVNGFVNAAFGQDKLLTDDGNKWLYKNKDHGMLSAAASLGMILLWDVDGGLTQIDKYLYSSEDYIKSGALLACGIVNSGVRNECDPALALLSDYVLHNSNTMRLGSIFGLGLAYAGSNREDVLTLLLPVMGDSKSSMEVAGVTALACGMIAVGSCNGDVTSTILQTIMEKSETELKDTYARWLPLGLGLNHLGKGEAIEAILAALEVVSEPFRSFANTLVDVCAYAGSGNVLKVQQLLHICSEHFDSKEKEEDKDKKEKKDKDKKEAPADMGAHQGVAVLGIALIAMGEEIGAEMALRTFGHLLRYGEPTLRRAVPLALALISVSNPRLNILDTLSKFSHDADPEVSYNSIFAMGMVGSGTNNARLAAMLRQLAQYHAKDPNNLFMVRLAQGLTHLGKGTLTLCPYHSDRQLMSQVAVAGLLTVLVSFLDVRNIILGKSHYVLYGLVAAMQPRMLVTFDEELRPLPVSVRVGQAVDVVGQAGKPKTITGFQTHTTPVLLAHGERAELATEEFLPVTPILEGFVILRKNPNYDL

- binding: binds
Substance: endogenous proteasome 26S subunit non-ATPase 2 (PSMD2) of HepG2 cells (from UniProt Q13200 1-908)
